## Cleaved PARP in drug-treated melanoma cells

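Human melanoma cell lines in 1,536-well plates were treated with a pair of drugs for 72 h, then fixed, stained and imaged. Values are the share of nuclei positive for cleaved PARP as a percentage of the same share in the DMSO control: 100 is the control level, higher means more apoptosis. Every drug was used at one fixed concentration, the higher of two screened. No replicate spread is given; individual values may be noisy. Basal and induced levels differ widely between cell lines.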 Only some of the drugs and lines screened are listed, without regard to their results.

All values are for the listed drug together with ruxolitinib (5000 nM): N#CC[C@H](C1CCCC1)n1cc(-c2ncnc3[nH]ccc23)cn1

Partner: CC1(C)CCC(c2ccc(Cl)cc2)=C(CN2CCN(c3ccc(C(=O)NS(=O)(=O)c4ccc(N[C@H](CCN5CCOCC5)CSc5ccccc5)c(S(=O)(=O)C(F)(F)F)c4)cc3)CC2)C1 at 2000 nM
RPMI-7951: 155
C32: 185
MeWo: 321
UACC-257: 968

Partner: C/C(O)=C(\C#N)C(=O)Nc1cc(Br)ccc1Br at 10000 nM
RPMI-7951: 99.1
C32: 102
MeWo: 135
UACC-257: 34.0

Partner: NC(=O)Nc1cc(-c2cccc(F)c2)sc1C(=O)N[C@H]1CCCNC1 at 100 nM
RPMI-7951: 137
C32: 198
MeWo: 330
UACC-257: 64.3

Partner: COc1cc2c(Oc3ccc4[nH]c(C)cc4c3F)ncnc2cc1OCCCN1CCCC1 at 2000 nM
RPMI-7951: 106
C32: 38.3
MeWo: 94.9
UACC-257: 71.6

Partner: OCc1c[nH]c2ccccc12 at 4000 nM
RPMI-7951: 180
C32: 50.6
MeWo: 90.3
UACC-257: 72.5

Partner: Oc1cc(-c2nc(-c3ccccc3)[nH]c2-c2ccncc2)ccc1Cl at 1000 nM
RPMI-7951: 156
C32: 182
MeWo: 75.1
UACC-257: 57.4

Partner: Cn1cnc2c(F)c(Nc3ccc(Br)cc3Cl)c(C(=O)NOCCO)cc21 at 75 nM
RPMI-7951: 24.9
C32: 69.6
MeWo: 115
UACC-257: 39.9

Partner: c1cc(-c2cnn3cc(-c4ccc(OCCN5CCCCC5)cc4)cnc23)ccn1 at 2000 nM
RPMI-7951: 279
C32: 433
MeWo: 106
UACC-257: 40.6

Partner: CCN(CC)CCCCNc1ncc2cc(-c3cc(OC)cc(OC)c3)c(NC(=O)NC(C)(C)C)nc2n1 at 500 nM
RPMI-7951: 136
C32: 90.9
MeWo: 174
UACC-257: 92.4

Partner: O=C(Nc1cc(C(F)(F)F)cc(C(F)(F)F)c1)c1cc(Cl)ccc1O at 80 nM
RPMI-7951: 187
C32: 133
MeWo: 142
UACC-257: 223

Partner: CCCCCCCCCCCC1=C(O)C(=O)C=C(O)C1=O at 6000 nM
RPMI-7951: 283
C32: 90.7
MeWo: 131
UACC-257: 101

Partner: NC(=O)c1ccc(N(C(N)=O)c2c(F)cccc2F)nc1-c1ccc(F)cc1F at 2000 nM
RPMI-7951: 110
C32: 30.9
MeWo: 66.0
UACC-257: 45.0

Partner: Cc1cc(Nc2cc(N3CCN(C)CC3)nc(Sc3ccc(NC(=O)C4CC4)cc3)n2)n[nH]1 at 30 nM
RPMI-7951: 320
C32: 241
MeWo: 207
UACC-257: 102

Partner: Cc1cc([N+](=O)[O-])ccc1NS(=O)(=O)c1cc(Cl)ccc1Cl at 5000 nM
RPMI-7951: 651
C32: 86.0
MeWo: 171
UACC-257: 244

Partner: Cn1cc(C2=C(c3cn(C4CCN(Cc5ccccn5)CC4)c4ccccc34)C(=O)NC2=O)c2ccccc21 at 4000 nM
RPMI-7951: 42.3
C32: 31.8
MeWo: 25.2
UACC-257: 70.6

Partner: O=C(O)C(=O)Nc1sc2c(c1C(=O)O)CCNC2 at 8330 nM
RPMI-7951: 241
C32: 98.8
MeWo: 146
UACC-257: 76.8

Partner: COC(=O)c1sccc1S(=O)(=O)Nc1ccc(Nc2ccccc2)cc1OC at 5000 nM
RPMI-7951: 141
C32: 87.6
MeWo: 163
UACC-257: 96.5

Partner: Cn1nnc2c(C(N)=O)ncn2c1=O at 10000 nM
RPMI-7951: 104
C32: 33.4
MeWo: 132
UACC-257: 108

Partner: C[C@@H](Oc1cc(-c2cnn(C3CCNCC3)c2)cnc1N)c1c(Cl)ccc(F)c1Cl at 1000 nM
RPMI-7951: 90.4
C32: 62.3
MeWo: 78.3
UACC-257: 51.4

Partner: Cn1cncc1[C@@](N)(c1ccc(Cl)cc1)c1ccc2c(c1)c(-c1cccc(Cl)c1)cc(=O)n2C at 50 nM
RPMI-7951: 148
C32: 54.6
MeWo: 102
UACC-257: 308

Partner: O=C(O)c1ccc(-c2c[nH]c3ncc(-c4ccccc4)cc23)cc1C1CCCC1 at 800 nM
RPMI-7951: 266
C32: 102
MeWo: 232
UACC-257: 34.9

Partner: CC1(C)NC(=O)N(c2ccc([N+](=O)[O-])c(C(F)(F)F)c2)C1=O at 5000 nM
RPMI-7951: 159
C32: 66.5
MeWo: 226
UACC-257: 174

Partner: Cc1cc(N2CCOCC2)cc2[nH]c(-c3c(NC[C@@H](O)c4cccc(Cl)c4)cc[nH]c3=O)nc12 at 1000 nM
RPMI-7951: 81.8
C32: 98.1
MeWo: 174
UACC-257: 146

Partner: CCCCCCCCc1ccc(CCC(N)(CO)CO)cc1 at 10000 nM
RPMI-7951: 2110
C32: 203
MeWo: 123
UACC-257: 168

Partner: C[C@]12O[C@H](C[C@]1(O)CO)n1c3ccccc3c3c4c(c5c6ccccc6n2c5c31)CNC4=O at 20 nM
RPMI-7951: 124
C32: 101
MeWo: 147
UACC-257: 46.3

Partner: Nc1ccn([C@@H]2O[C@H](CO)[C@@H](O)C2(F)F)c(=O)n1 at 2 nM
RPMI-7951: 42.3
C32: 65.2
MeWo: 151
UACC-257: 264

Partner: Nc1ncn([C@H]2C[C@H](O)[C@@H](CO)O2)c(=O)n1 at 500 nM
RPMI-7951: 131
C32: 166
MeWo: 209
UACC-257: 142

Partner: O=c1cc(-c2cccc3c2Sc2ccccc2S3)oc(N2CCOCC2)c1 at 5000 nM
RPMI-7951: 69.7
C32: 81.0
MeWo: 182
UACC-257: 32.3

Partner: C[C@]1(O)C[C@@H](c2nc(-c3ccc4ccc(-c5ccccc5)nc4c3)c3c(N)nccn32)C1 at 2000 nM
RPMI-7951: 268
C32: 28.7
MeWo: 45.3
UACC-257: 21.3

Partner: Cn1c(Nc2ccc(C(F)(F)F)cc2)nc2cc(Oc3ccnc(-c4ncc(C(F)(F)F)[nH]4)c3)ccc21 at 400 nM
RPMI-7951: 143
C32: 115
MeWo: 166
UACC-257: 187

Partner: Cc1cc(SCc2sc(-c3ccc(C(F)(F)F)c(F)c3)nc2C)ccc1OCC(=O)O at 10000 nM
RPMI-7951: 106
C32: 85.8
MeWo: 95.1
UACC-257: 145

Partner: COc1ccc(C2=N[C@@H](c3ccc(Cl)cc3)[C@@H](c3ccc(Cl)cc3)N2C(=O)N2CCNC(=O)C2)c(OC(C)C)c1 at 500 nM
RPMI-7951: 43.2
C32: 130
MeWo: 105
UACC-257: 85.0

Partner: C=C(c1ccc(C(=O)O)cc1)c1cc2c(cc1C)C(C)(C)CCC2(C)C at 10000 nM
RPMI-7951: 175
C32: 37.3
MeWo: 113
UACC-257: 99.3

Partner: CCCCCCCCCCCCCCCCCCOP(=O)([O-])OC1CC[N+](C)(C)CC1 at 2000 nM
RPMI-7951: 399
C32: 339
MeWo: 158
UACC-257: 68.8

Partner: CC(=O)O[C@@]12CO[C@@H]1C[C@H](O)[C@@]1(C)C(=O)[C@H](O)C3=C(C)[C@@H](OC(=O)[C@H](O)[C@@H](NC(=O)OC(C)(C)C)c4ccccc4)C[C@@](O)([C@@H](OC(=O)c4ccccc4)[C@H]21)C3(C)C at 0.5 nM
RPMI-7951: 190
C32: 319
MeWo: 1600
UACC-257: 248

Partner: Clc1ccc(Nc2nnc(Cc3ccncc3)c3ccccc23)cc1 at 10000 nM
RPMI-7951: 122
C32: 278
MeWo: 158
UACC-257: 93.6

Partner: CC(C)(C)c1cnc(CSc2cnc(NC(=O)C3CCNCC3)s2)o1 at 50 nM
RPMI-7951: 199
C32: 170
MeWo: 159
UACC-257: 149

Partner: N#Cc1c(O)c2c(-c3ccc(-c4ccccc4O)cc3)csc2[nH]c1=O at 10000 nM
RPMI-7951: 207
C32: 104
MeWo: 180
UACC-257: 50.4

Partner: O=C1NC(=O)/C(=C/c2ccc(-c3ccc(F)cc3O)o2)S1 at 5000 nM
RPMI-7951: 71.6
C32: 93.6
MeWo: 127
UACC-257: 61.0

Some entries from above, unchanged:

Partner	RPMI-7951	C32	MeWo	UACC-257
Cn1cc(C2=C(c3cn(C4CCN(Cc5ccccn5)CC4)c4ccccc34)C(=O)NC2=O)c2ccccc21 at 4000 nM	42.3	31.8	25.2	70.6
CC(=O)O[C@@]12CO[C@@H]1C[C@H](O)[C@@]1(C)C(=O)[C@H](O)C3=C(C)[C@@H](OC(=O)[C@H](O)[C@@H](NC(=O)OC(C)(C)C)c4ccccc4)C[C@@](O)([C@@H](OC(=O)c4ccccc4)[C@H]21)C3(C)C at 0.5 nM	190	319	1600	248
COC(=O)c1sccc1S(=O)(=O)Nc1ccc(Nc2ccccc2)cc1OC at 5000 nM	141	87.6	163	96.5
Nc1ccn([C@@H]2O[C@H](CO)[C@@H](O)C2(F)F)c(=O)n1 at 2 nM	42.3	65.2	151	264

From a melanoma drug combination screen (doi:10.1371/journal.pone.0140310); values rounded.